Source: patent US20230092648A1, “COMBINATION CONTAINING A DUOCARMYCIN DERIVATIVE-COMPRISING ANTIBODY-DRUG CONJUGATE AND THIOSULFATE” (BYONDIS B.V., priority 2020, published 2023)
Where a name gives a salt, the structure may show the parent alone. Some entries repeat one wording, which the source may state once for all of them.

assay: Detoxification experiments with thiol compounds: LC-MS of thiol + SYD986 in acetonitrile/water (1:1); settings: SYD986 1 μM, thiol 6.8 mM (cysteamine)/10 mM (other thiols)

SMILES | formation of a reaction product with SYD986 (LC-MS)
O=S(=O)(O)CCS [MESNA, sodium salt of 2-mercaptoethanesulfonic acid] | did not form a reaction product
CC(=O)N[C@@H](CS)C(=O)O [N-Acetylcysteine] | did not form a reaction product
O=S(O)(O)=S [STS, sodium thiosulfate] | did react
Cl.NCCS [cysteamine, cysteamine hydrochloride] | did not form a reaction product
N[C@@H](CCC(=O)N[C@@H](CS)C(=O)NCC(=O)O)C(=O)O [glutathione, L-Glutathione] | did not form a reaction product
